Experimental findings from article PMC6702985 are described below.

Results are given in words; binding and its absence hold for the method and conditions named. Binding seen in cells or lysates may run through a third protein. Some binding calls cover weakened binding; strength is not graded here. Tags and fused reporters may be left off the sequences shown.

Test [1] deals with T1, ODF1-ECFP (outer dense fiber protein 1 fused to ECFP) (UniProt Q61999).
T1 sequence: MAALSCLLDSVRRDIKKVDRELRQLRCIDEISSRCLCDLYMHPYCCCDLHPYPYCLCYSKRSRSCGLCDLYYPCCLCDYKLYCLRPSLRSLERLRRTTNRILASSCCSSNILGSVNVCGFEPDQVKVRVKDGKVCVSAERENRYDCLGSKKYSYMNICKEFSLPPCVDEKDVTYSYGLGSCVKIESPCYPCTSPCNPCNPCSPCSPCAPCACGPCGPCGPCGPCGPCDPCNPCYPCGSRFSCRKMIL
Nature of the test: co-IP; HEK-293 cells transfected with both expression plasmids; lysis buffer 150 mM NaCl, 1% Nonidet P40, 0.5% sodium deoxycholate, 0.1% SDS, 50 mM Tris-HCl pH 7.6; capture with rabbit anti-GFP or rat anti-RedFP on protein G agarose overnight at 4°C; control rabbit anti-GAL4 (DBD); immunoblot. (Immunoblotting shows a protein as a band on a membrane.)

For test [2], the target named is T2, CCDC42-Cherry (coiled-coil domain containing 42, isoform 203, fused to Cherry), expressed in HEK-293 cells (mouse) (UniProt Q5SV66).
T2 sequence: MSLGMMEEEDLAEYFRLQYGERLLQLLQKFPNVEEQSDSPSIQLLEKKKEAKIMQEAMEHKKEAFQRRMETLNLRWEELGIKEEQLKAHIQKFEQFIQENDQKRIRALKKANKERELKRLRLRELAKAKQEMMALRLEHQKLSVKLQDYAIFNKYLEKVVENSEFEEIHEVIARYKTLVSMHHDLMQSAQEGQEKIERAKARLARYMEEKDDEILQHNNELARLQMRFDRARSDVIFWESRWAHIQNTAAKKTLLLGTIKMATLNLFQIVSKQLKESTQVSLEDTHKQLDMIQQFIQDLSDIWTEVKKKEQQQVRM
Described as above.

B1: CCDC42-Cherry (coiled-coil domain containing 42, isoform 203, fused to Cherry), expressed in HEK-293 cells (protein, UniProt Q5SV66-1 1-316)
chain: T2 sequence
Regarding B1, the binding result in test [1] was “binds”.

B2: ODF1-ECFP (outer dense fiber protein 1 fused to ECFP) (protein, UniProt Q61999 1-247)
chain: T1 sequence
Turning to B2, the binding entry in test [2] is given as “binds”.
